Results on 1 molecule are retold here after CN115703833A.

No constants are given. Whether binding was seen depends on the method and setting. Some results given as binding are weak or reduced against the parent protein; the word gives no strength.

The test deals with 食蟹猴CD47-his蛋白 (Acro biosystems, cat#CD7-C52H1, MW 15.8 kDa) (cynomolgus monkey). The test can be described thus: capture ELISA; antibody captured by goat anti-mouse IgG Fcγ, biotinylated cynomolgus CD47 at 60 nM. A general note: An ELISA detects its analyte on a solid surface through an enzyme-linked reagent.

B1: 本发明的单克隆抗体1D5 (小鼠抗CD47单克隆抗体) (antibody, V domains shown)
VH: EVQLQQSGAELVRSGASVKLSCTASGFNIKDYYMSWVRQRPEQGLEWIGWIDPKNGDTAYDPKFQGKATMTADTSSNTAYLQFSSLTSEDTADYYCNAGGRGGFAYWGQGTLVTVSA
VL: DVLMTQTPLSLPVSLGDQASISCRSNQSIVHSNGYTYLEWYLQKPGQSPKLLIYKVSNRFSGVPDRFSGSGSGTDFTLRISRVEAEDLGVYYCFQGSHVPRTFGGGTKLEIK
On to B1, for which the binding entry is “binds”.
